Results on 14 sequences are retold here after PMC6768852.

The chains behind the UniProt entries cited, without tags or fusion partners. Residues count along the entry.
UniProt Q9Y6M1, 425-581: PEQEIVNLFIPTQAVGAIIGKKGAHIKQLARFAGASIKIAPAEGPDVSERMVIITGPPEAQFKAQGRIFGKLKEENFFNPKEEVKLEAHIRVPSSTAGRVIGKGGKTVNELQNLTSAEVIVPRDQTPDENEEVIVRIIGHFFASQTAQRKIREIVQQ

One series has as its target IMP2 KH34 (UniProt Q9Y6M1). Put plainly: EMSA. Particulars: EMSA: 100 pM RNA, 10 mM Tris, 100 mM NaCl, 0.1 mM EDTA, 0.01 mg/mL tRNA, 50 ug/mL heparin, 0.01% IGEPAL CA630, room temperature, 3 h, pH not stated, recombinant protein, protein details: MBP. (In general: A gel shift assay detects complexes by their altered migration in electrophoresis.)
The next series has as its system IMP2 KH3 VL MUT (KH34). In words: EMSA. The settings on record: EMSA: 100 pM RNA, 10 mM Tris, 100 mM NaCl, 0.1 mM EDTA, 0.01 mg/mL tRNA, 50 ug/mL heparin, 0.01% IGEPAL CA630, room temperature, 3 h, pH not stated, recombinant protein.
Where [1] appears, read: letters put together from the description.

The exact form of at least one protein or probe is not confirmed. No signal at the amounts used counts as a negative. At least one verdict was read from the data and is not stated in words by the source.

On to ACAGGACUGUUACCAACACCCACACCCC [C28 C3A], for which the binding result with IMP2 KH34 is recorded as “no binding”; with IMP2 KH3 VL MUT (KH34) it was “binds”. For ACCAGACUGUUACCAACACCCACACCCC [C28 G4A], in the series with IMP2 KH3 VL MUT (KH34), the binding result was “no binding”. Regarding ACCCGACUGUUACCAACACCCACACCCC [C28 G4C], in the series on IMP2 KH3 VL MUT (KH34), the binding result was “no binding”.

Turning to ACCGAACUGUUACCAACACCCACACCCC [C28 G5A], in the series on IMP2 KH3 VL MUT (KH34), the binding result is “no binding”. Take ACCGCACUGUUACCAACACCCACACCCC [C28 G5C]: in the series on IMP2 KH3 VL MUT (KH34), the binding result is recorded as “no binding”. In the case of ACCGGCCUGUUACCAACACCCACACCCC [C28 A6C], the binding result is recorded as “no binding” with IMP2 KH34 and “binds” in the series on IMP2 KH3 VL MUT (KH34). Take ACCGGGCUGUUACCAACACCCACACCCC [C28 A6G]: the binding result with IMP2 KH34 and in the series with IMP2 KH3 VL MUT (KH34) (permissive except for G) was “no binding” each time. As for ACCGGUCUGUUACCAACACCCACACCCC [C28 A6U], the values for the binding result with IMP2 KH34 and in the series with IMP2 KH3 VL MUT (KH34) were “no binding” and “binds”, respectively.

In the case of ACCGUACUGUUACCAACACCCACACCCC [C28 G5U], in the series on IMP2 KH3 VL MUT (KH34), the binding result was “no binding”. Turning to ACCUGACUGUUACCAACACCCACACCCC [C28 G4U], the binding result in the series with IMP2 KH3 VL MUT (KH34) is “no binding”. Consider ACGGGACUGUUACCAACACCCACACCCC [C28 C3G], for which the binding result with IMP2 KH34 and with IMP2 KH3 VL MUT (KH34) (permissive except for G) was “no binding” throughout. In the case of ACUGGACUGUUACCAACACCCACACCCC [C28 C3U], the binding result with IMP2 KH34 is reported as “no binding”; in the series on IMP2 KH3 VL MUT (KH34) it was “binds”. For “GGGCAGAGCGACGCAGUUUAGCGGCCUCAGCGAACCCUUUAAAACACUUCUC [SELEX RNA #1 GG mutant]”, in the series with IMP2 KH34 (setting [1]), the binding result is “no binding”. As to “GGGCGGAGCGACGCAGUUUAGCGGCCUCAGCGAACCCUUUGGAACACUUCUC [SELEX RNA #1 CA mutant]”, in the series with IMP2 KH34 (setting [1]), the binding result was “no binding”.
